# This is one part of the list. Repeats in this data set agree poorly, so a single value says little.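 A first-round screen of about ten thousand compounds sought those raising reporter output, using human embryonic kidney cells briefly transfected with a plasmid carrying a Renilla luciferase gene driven by the HSV-TK promoter.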
# Tested on: HEK 293FT
# Assay: log relative Renilla luciferase luminescence (reporter expression vs reference, reference not stated) (log (base not stated)); higher = higher recombinant reporter expression
# Settings: 10 µM; time after transfection 48 h
# Protocol: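 HEK 293FT cells transiently transfected with pRL-TK (Renilla luciferase) were treated with compounds at 10 uM and luminescence was read about 42 h later. Values are log relative Renilla luminescence (log base and reference not stated). Single-pass screen; ICCB Known Bioactives library.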
row,SMILES,log
1,O=C(Nc1ccccc1)c1cc([N+](=O)[O-])ccc1Cl,-0.78
2,CC1(COc2ccc(CC3SC(=O)NC3=O)cc2)CCCCC1 (stereo unspecified) [Ciglitazone],0.173
3,C[S+]([O-])c1ccc(-c2nc(-c3ccc(F)cc3)c(-c3ccncc3)[nH]2)cc1 (stereo unspecified),-0.202
4,Clc1ccc(-c2nc3sccn3c2/C=N/OCc2ccc(Cl)c(Cl)c2)cc1,-0.0621
5,COC(=O)C1=C(C)NC(C)=C(C(=O)OC)C1c1ccccc1[N+](=O)[O-] [Nifedipine],0.149
6,CCCCOc1cc(CC2CNC(=O)N2)ccc1OC (stereo unspecified),-0.13
7,COc1cc(-c2ccc(=O)[nH]n2)ccc1OC(F)F [Zardaverine],-0.165
8,O=c1cc(N2CCOCC2)oc2c(-c3ccccc3)cccc12,-0.272
9,Oc1cc2c(cc1O)CN(C(=S)NCCc1ccc(Cl)cc1)CCC2 [Capsazepine],-1.31
10,O=C1NC(=O)C(c2ccccc2[N+](=O)[O-])=C1Nc1ccc(O)c(Cl)c1,-0.13
11,CN(CCc1ccc(Cl)c(Cl)c1)CC(O)COc1ccc(NS(C)(=O)=O)cc1 (stereo unspecified),-0.126
12,Nc1ncnc2c1ncn2C1CCCO1 (stereo unspecified),-0.108
13,C[C@@H]1C[C@H]2[C@@H]3CCC4=CC(=O)C=C[C@]4(C)[C@@]3(F)[C@@H](O)C[C@]2(C)[C@@]1(O)C(=O)CO [Dexamethasone],0.226
14,Cc1ccc(S(=O)(=O)/C=C/C#N)cc1,0.378
15,COc1cccc(-c2cc(=O)c3ccccc3o2)c1N,0.0989
16,Oc1cc(O)cc(/C=C/c2ccc(O)c(O)c2)c1 [Piceatannol],-0.818

# Reformatted with bars between the fields: part of the list above.
row | SMILES | log
11 | CN(CCc1ccc(Cl)c(Cl)c1)CC(O)COc1ccc(NS(C)(=O)=O)cc1 (stereo unspecified) | -0.126
12 | Nc1ncnc2c1ncn2C1CCCO1 (stereo unspecified) | -0.108

# Reference: the supplement of paper PMC7024190
